Experimental data published in the supplement of paper PMC12067093, “Discovery and optimisation of a covalent ligand for TRIM25 and its application to targeted protein ubiquitination” (Chemical Science, 2025).
Some of the results follow.

Protein sequences, listed by entry. Tags and fused reporters are not part of them. Lines headed by an entry give the natural chain unless they say otherwise; changes in a name come on top.
UniProt P16930: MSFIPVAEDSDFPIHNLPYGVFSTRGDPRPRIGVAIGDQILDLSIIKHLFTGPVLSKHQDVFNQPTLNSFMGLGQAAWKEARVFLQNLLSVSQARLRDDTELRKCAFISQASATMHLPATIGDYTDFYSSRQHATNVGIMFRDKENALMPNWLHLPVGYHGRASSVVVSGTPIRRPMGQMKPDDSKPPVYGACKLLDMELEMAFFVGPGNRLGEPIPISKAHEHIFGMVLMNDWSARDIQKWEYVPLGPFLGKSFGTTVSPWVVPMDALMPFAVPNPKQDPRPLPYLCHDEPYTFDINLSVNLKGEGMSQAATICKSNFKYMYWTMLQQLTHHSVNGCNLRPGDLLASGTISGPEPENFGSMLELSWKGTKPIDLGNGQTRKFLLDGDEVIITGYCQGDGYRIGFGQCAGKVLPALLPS
UniProt Q8IV48: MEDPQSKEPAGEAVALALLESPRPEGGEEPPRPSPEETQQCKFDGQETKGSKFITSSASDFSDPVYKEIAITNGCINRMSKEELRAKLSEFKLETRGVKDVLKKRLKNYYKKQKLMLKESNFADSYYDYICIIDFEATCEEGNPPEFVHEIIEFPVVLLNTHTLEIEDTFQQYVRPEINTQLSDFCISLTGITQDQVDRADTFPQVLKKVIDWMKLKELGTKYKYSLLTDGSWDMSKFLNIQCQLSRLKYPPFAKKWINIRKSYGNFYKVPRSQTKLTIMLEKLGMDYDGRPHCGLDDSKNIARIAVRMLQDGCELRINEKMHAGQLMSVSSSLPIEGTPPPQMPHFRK
UniProt Q9NZB2: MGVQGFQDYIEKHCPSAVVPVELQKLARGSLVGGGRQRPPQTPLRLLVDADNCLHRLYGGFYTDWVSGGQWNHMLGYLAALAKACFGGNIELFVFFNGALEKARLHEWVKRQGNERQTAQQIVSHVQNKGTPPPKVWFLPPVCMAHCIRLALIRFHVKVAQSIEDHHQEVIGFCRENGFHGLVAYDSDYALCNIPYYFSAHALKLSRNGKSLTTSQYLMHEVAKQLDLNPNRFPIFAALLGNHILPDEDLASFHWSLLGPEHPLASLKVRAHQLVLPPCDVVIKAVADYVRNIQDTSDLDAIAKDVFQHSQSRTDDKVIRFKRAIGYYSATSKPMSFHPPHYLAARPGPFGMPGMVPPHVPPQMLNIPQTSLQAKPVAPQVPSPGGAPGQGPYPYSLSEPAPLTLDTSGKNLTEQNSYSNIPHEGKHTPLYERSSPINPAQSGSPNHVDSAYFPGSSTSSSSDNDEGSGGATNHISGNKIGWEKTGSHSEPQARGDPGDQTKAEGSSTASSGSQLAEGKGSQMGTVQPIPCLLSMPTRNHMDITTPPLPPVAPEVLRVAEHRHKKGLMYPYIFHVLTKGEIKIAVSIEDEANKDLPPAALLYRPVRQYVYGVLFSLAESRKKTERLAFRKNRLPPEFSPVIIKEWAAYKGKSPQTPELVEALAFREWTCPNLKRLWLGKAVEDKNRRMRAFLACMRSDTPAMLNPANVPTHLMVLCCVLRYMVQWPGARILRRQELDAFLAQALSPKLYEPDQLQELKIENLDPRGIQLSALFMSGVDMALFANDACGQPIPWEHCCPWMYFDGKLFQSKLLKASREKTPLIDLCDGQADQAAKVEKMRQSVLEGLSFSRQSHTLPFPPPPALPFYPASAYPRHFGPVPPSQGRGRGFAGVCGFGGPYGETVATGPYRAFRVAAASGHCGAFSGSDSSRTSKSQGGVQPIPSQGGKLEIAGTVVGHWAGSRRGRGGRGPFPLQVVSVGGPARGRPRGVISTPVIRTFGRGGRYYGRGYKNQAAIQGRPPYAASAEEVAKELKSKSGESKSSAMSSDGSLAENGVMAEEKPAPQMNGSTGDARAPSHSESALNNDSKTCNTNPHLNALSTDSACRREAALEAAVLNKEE
UniProt Q9BSJ8: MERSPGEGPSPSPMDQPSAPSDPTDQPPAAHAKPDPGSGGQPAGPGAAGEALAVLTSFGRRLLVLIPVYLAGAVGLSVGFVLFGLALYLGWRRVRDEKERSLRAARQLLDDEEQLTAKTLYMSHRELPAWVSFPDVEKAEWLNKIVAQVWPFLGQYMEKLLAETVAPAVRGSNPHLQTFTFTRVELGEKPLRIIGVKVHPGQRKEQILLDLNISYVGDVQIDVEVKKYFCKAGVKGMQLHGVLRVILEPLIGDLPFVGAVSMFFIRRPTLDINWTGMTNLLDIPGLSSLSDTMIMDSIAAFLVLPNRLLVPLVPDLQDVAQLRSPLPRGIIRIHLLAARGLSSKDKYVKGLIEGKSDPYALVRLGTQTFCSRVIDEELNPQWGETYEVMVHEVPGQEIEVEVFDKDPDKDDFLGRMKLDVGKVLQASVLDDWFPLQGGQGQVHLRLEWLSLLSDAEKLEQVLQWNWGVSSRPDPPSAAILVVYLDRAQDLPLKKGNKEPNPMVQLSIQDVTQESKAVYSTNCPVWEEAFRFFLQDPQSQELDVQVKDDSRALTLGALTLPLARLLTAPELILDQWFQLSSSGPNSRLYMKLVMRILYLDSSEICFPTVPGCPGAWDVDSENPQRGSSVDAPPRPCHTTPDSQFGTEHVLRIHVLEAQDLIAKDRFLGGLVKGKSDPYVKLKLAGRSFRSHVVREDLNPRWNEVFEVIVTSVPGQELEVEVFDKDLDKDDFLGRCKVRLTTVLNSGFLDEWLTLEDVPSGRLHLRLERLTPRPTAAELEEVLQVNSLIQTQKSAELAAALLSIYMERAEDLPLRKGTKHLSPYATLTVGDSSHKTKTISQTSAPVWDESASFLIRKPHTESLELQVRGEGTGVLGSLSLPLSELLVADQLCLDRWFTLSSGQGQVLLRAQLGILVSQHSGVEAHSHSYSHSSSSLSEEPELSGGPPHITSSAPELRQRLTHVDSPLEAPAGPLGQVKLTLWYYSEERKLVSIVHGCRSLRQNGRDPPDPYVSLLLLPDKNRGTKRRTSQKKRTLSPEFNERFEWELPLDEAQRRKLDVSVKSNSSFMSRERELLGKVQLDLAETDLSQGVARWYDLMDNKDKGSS
UniProt Q9NQT4, whole entry, looked up: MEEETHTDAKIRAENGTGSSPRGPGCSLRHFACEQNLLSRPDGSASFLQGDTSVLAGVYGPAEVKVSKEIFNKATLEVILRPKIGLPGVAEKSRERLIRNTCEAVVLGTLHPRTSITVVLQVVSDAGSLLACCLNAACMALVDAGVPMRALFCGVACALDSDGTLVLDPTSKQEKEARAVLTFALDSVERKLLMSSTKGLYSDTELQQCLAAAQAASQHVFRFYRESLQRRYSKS
UniProt Q9NYK6: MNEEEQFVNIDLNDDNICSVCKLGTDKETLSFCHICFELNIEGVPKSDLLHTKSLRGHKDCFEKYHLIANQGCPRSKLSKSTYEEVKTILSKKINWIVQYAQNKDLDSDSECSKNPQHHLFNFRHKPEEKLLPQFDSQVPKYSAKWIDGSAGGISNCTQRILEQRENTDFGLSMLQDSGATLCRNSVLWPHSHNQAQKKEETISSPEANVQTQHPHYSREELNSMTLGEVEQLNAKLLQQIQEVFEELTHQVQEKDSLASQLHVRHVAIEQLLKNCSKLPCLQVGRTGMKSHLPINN
UniProt P84090, whole entry, looked up: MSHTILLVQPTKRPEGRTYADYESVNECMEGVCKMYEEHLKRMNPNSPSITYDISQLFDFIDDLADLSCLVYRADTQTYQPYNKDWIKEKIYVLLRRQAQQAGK
UniProt Q96HE7: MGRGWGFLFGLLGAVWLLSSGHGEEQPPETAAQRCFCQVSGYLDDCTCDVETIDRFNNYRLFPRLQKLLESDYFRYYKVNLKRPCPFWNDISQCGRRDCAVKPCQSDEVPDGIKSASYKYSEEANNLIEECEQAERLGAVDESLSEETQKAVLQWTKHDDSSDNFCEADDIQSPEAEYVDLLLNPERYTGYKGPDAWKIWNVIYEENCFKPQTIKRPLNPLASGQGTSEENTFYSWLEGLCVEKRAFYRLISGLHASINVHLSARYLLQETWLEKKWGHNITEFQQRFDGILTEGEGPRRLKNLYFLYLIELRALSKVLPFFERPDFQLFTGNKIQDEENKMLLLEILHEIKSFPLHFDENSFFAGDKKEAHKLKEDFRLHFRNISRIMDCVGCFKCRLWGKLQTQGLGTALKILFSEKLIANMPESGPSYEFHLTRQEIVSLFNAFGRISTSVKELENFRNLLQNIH
UniProt Q01469, whole entry, looked up: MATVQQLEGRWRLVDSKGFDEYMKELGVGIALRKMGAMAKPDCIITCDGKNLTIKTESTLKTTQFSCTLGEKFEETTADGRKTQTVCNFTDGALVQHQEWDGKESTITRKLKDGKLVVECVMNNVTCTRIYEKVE
UniProt Q9BS26: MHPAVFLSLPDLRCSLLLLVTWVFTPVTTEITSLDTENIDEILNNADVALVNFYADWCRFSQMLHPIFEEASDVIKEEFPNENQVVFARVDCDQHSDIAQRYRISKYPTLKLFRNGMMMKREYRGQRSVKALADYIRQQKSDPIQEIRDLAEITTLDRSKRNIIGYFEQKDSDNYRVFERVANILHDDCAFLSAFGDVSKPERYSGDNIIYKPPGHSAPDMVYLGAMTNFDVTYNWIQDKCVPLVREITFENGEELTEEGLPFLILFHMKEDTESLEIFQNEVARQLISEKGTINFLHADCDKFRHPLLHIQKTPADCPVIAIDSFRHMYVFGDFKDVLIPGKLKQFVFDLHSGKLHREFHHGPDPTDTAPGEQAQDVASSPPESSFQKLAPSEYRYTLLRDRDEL
UniProt P10768: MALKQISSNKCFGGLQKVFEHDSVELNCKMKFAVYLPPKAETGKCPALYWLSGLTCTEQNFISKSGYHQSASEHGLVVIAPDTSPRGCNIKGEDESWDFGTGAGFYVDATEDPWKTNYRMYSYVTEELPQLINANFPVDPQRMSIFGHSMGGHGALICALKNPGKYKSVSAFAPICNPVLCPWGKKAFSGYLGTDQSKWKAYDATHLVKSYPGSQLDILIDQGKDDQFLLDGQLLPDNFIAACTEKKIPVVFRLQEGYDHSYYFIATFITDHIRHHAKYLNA
UniProt Q96CS3: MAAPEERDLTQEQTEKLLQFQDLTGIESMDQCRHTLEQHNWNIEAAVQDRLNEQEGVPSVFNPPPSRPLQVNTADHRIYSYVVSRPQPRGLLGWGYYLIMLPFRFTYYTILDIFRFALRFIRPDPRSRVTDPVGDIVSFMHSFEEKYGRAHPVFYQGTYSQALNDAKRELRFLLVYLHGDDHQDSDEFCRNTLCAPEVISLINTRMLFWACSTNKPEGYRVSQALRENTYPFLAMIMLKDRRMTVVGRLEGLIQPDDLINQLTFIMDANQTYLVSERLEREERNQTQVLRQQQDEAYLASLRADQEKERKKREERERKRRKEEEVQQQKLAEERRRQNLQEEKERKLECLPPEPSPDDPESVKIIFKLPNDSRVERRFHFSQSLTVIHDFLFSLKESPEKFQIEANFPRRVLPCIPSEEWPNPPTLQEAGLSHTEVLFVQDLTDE
UniProt O94905: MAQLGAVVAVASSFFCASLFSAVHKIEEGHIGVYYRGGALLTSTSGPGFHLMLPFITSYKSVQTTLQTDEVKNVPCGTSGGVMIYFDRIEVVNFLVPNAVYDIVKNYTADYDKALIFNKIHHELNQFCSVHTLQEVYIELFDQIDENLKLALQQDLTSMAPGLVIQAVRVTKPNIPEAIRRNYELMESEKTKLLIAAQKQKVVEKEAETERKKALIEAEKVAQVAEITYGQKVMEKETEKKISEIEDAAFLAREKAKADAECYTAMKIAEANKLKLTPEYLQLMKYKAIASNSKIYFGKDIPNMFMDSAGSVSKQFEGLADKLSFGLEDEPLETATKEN
UniProt Q5RKV6, whole entry, looked up: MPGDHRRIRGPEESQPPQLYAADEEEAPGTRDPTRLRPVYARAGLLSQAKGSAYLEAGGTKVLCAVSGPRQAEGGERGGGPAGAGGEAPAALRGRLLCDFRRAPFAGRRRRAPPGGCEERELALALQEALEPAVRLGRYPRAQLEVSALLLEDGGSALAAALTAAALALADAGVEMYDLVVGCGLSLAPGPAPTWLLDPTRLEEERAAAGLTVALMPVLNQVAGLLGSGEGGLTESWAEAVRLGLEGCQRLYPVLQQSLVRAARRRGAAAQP
UniProt Q9Y282: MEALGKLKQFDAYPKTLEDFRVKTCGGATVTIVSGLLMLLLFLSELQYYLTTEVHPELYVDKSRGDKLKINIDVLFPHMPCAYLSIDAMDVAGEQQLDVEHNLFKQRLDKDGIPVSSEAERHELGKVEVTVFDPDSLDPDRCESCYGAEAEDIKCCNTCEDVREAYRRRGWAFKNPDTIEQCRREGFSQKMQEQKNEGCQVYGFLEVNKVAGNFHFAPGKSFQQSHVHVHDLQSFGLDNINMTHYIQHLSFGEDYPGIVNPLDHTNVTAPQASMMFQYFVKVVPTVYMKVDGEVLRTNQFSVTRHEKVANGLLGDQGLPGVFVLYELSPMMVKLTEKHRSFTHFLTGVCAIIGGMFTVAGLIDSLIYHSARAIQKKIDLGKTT

Compound: CC1Cc2ccccc2N1C(=O)C1CCCN(C1)C(=O)CCl (mixture of isomers) [TRIM25 ligand 11 (diastereomer mixture)]
Assay: probe-labelled cysteine peptide fold change vs DMSO (competition) (log2 fold change); higher = less target engagement (more negative = stronger competition)
Conditions: THP-1, incubation time: 4 h
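Note: competitive chemoproteomic profiling in live THP-1 cells with an iodoacetamide desthiobiotin (IA-DTB) probe, comparing probe-labelled peptide intensities in compound-treated cells against DMSO-treated controls.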

Row | Target | probe-labelled cysteine peptide fold change (10 µM) | probe-labelled cysteine peptide fold change (50 µM)
1 | EXOSC10_Q01780_327_SFLGLTCLMQISTR (UniProt Q01780) | 0.12 | 0.268
2 | FAH_P16930_396_FLLDGDEVIITGYCQGDGYR (UniProt P16930) | 0.0287 | -0.218
3 | EXOC7_Q9UPT5-2_285_RPGRDDMLDVETDAYIHCVSAFVK (UniProt Q9UPT5) | -0.115 | 0.0261
4 | ERI1_Q8IV48_75_EIAITNGCINR (UniProt Q8IV48) | -0.0532 | -0.243
5 | FAM120A_Q9NZB2_174_VAQSIEDHHQEVIGFCR (UniProt Q9NZB2) | 0.0766 | 0.155
6 | F8A3_P23610_110_LVCPAAYGEPLQAAASALGAAVR (UniProt P23610) | -0.204 | -0.154
7 | EXOC6_Q8TAG9_135_LQLCLPVLEMYSK (UniProt Q8TAG9) | 0.184 | 0.103
8 | F13A1_P00488_410_CGPASVQAIK (UniProt P00488) | 0.168 | 0.101
9 | EXOSC10_Q01780_612_LENVLFGPHDCSHAPPDGYPIIPTSGSVPVQK (UniProt Q01780) | 0.353 | 0.274
10 | ESYT1_Q9BSJ8_635_GSSVDAPPRPCHTTPDSQFGTEHVLR (UniProt Q9BSJ8) | 0.0884 | 0.00472
11 | EXOSC5_Q9NQT4_209_GLYSDTELQQCLAAAQAASQHVFR (UniProt Q9NQT4) | 0.171 | 0.116
12 | FAM120A_Q9NZB2_919_VAAASGHCGAFSGSDSSR (UniProt Q9NZB2) | 0.103 | -0.171
13 | EURL_Q9NYK6_112_DLDSDSECSK (UniProt Q9NYK6) | 0.0235 | -0.0278
14 | ERH_P84090_33_TYADYESVNECMEGVCK (UniProt P84090) | -0.365 | -0.0983
15 | ERO1A_Q96HE7_104_PCQSDEVPDGIK (UniProt Q96HE7) | -0.0251 | 0.0181
16 | FABP5_Q01469_67_TTQFSCTLGEKFEETTADGR (UniProt Q01469) | -0.384 | -0.0998
17 | ERP44_Q9BS26_189_VANILHDDCAFLSAFGDVSKPER (UniProt Q9BS26) | 0.131 | 0.193
18 | ERI1_Q8IV48_314_MLQDGCELR (UniProt Q8IV48) | 0.0325 | -0.0395
19 | EVL_Q9UI08-2_9_ATSEQSICQAR (UniProt Q9UI08) | 0.254 | 0.305

Copied from above, nos. 10–16
Row | Target | probe-labelled cysteine peptide fold change (10 µM) | probe-labelled cysteine peptide fold change (50 µM)
10 | ESYT1_Q9BSJ8_635_GSSVDAPPRPCHTTPDSQFGTEHVLR (UniProt Q9BSJ8) | 0.0884 | 0.00472
11 | EXOSC5_Q9NQT4_209_GLYSDTELQQCLAAAQAASQHVFR (UniProt Q9NQT4) | 0.171 | 0.116
12 | FAM120A_Q9NZB2_919_VAAASGHCGAFSGSDSSR (UniProt Q9NZB2) | 0.103 | -0.171
13 | EURL_Q9NYK6_112_DLDSDSECSK (UniProt Q9NYK6) | 0.0235 | -0.0278
14 | ERH_P84090_33_TYADYESVNECMEGVCK (UniProt P84090) | -0.365 | -0.0983
15 | ERO1A_Q96HE7_104_PCQSDEVPDGIK (UniProt Q96HE7) | -0.0251 | 0.0181
16 | FABP5_Q01469_67_TTQFSCTLGEKFEETTADGR (UniProt Q01469) | -0.384 | -0.0998

Next part:

Row | Target | probe-labelled cysteine peptide fold change (10 µM) | probe-labelled cysteine peptide fold change (50 µM)
20 | ESD_P10768_45+56_CPALYWLSGLTCTEQNFISK (UniProt P10768) | 0.14 | 0.000345
21 | FAM120B_Q96EK7_344_QVISTSSDAESREEVPMCSDAESR (UniProt Q96EK7) | -0.109 | -0.27
22 | FAF2_Q96CS3_194_NTLCAPEVISLINTR (UniProt Q96CS3) | -0.184 | -0.0772
23 | ERLIN2_O94905_262_ADAECYTAMK (UniProt O94905) | 0.0253 | -0.0671
24 | EXOSC6_Q5RKV6_117_RAPPGGCEER (UniProt Q5RKV6) | -0.0462 | -0.267
25 | EZH2_Q15910_83_ECSVTSDLDFPTQVIPLK (UniProt Q15910) | 0.107 | 0.243
26 | EXOSC6_Q5RKV6_117_APPGGCEER (UniProt Q5RKV6) | -0.115 | -0.185
27 | ERGIC3_Q9Y282_159_CCNTCEDVR (UniProt Q9Y282) | -0.23 | 0.238
28 | EXOSC8_Q96B26_233+234_LCCLHKPGGSGLTGAK (UniProt Q96B26) | -0.017 | -0.115
29 | ESD_P10768_45_CPALYWLSGLTCTEQNFISK (UniProt P10768) | -0.0956 | -0.154
30 | FAH_P16930_315_GEGMSQAATICK (UniProt P16930) | 0.0916 | -0.0975
31 | FAH_P16930_193_PMGQMKPDDSKPPVYGACK (UniProt P16930) | -0.0322 | -0.0762
32 | FABP5_Q01469_120_LVVECVMNNVTCTR (UniProt Q01469) | -0.00113 | 0.0585
33 | ERCC2_P18074_663_HAAQCVGR (UniProt P18074) | -0.0609 | 0.01
34 | ERGIC3_Q9Y282_182_NPDTIEQCR (UniProt Q9Y282) | 0.0471 | -0.0457
35 | EXOC1_Q9NV70_304_GIEACTNAADALLQCMNVALRPGHDLLLAVK (UniProt Q9NV70) | 0.0427 | 0.131
36 | ERCC2_P18074_116_NLCIHPEVTPLR (UniProt P18074) | 0.0662 | 0.0279
37 | FAF2_Q96CS3_211_MLFWACSTNKPEGYR (UniProt Q96CS3) | -0.143 | -0.033
